# Measurements reported in the supplement of paper PMC8728848.
# Some of the results follow.
# B1: Aap brpt (Staphylococcus epidermidis) (protein)
# chain: VDGDPITSTEEIPFDKKREFDPNLAPGTEKVVQKGEPGTKTITTPTTKNPLTGEKVGEGEPTEKITKQPVDEIVHYGGEEIKTGHKDEFDPNAPKGSQTTQPGKPGVKNPDTGEVVTPPVDDVTKYGPVDGDPITSTEEIPFDKKREFDPNLAPGTEKVVQKGEPGTKTITTPTTKNPLTGEKVGEGEPTEKITKQPVDEIVHYGGEEIKPGHKDEFDPNAPKGSQEDVPGKPGVKNPDTGEVVTPPVDDVTKYGPVDGDSITSTEEIPFDKKREFDPNLAPGTEKVVQKGEPGTKTITTPTTKNPLTGEKVGEGEPTEKITKQPVDEIVHYGGEQIPQGHKDEFDPNAPVDSKTEVPGKPGVKNPDTGEVVTPPVDDVTKYGPVDGDSITSTEEIPFDKKREFDPNLAPGTEKVVQKGEPGTKTITTPTTKNPLTGEKVGEGKSTEKVTKQPVDEIVEYGPTK
# What was measured:
# Experiment in all cases: glycan array binding signal (z-score within array); higher = stronger binding
# Details in all cases: glycan notation: IUPAC condensed, linker removed
# [1] = target: Neu5Ac(a2-3)Gal(b1-3)]Neu5Ac(a2-3)Gal(b1-4)]GlcNAc
# Outline: (§1)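 Columns mapping to the same glycan were averaged after glycan names were converted to IUPAC-condensed notation. The data come from 3228 arrays in the Consortium for Functional Glycomics database, limited to those with an available protein sequence. Binding is reported as a within-array Z-score averaged across arrays of one protein sequence and across linkers.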
# Neu5Ac(a2-3)Gal(b1-4)Glc = target: Neu5Ac(a2-3)Gal(b1-4)Glc
# Outline: as §1
# [2] = target: Neu5Ac(a2-3)Gal(b1-4)GlcNAc
# Outline: as §1
# [3] = target: Neu5Ac(a2-3)Gal(b1-4)GlcNAc(b1-2)Man
# Outline: as §1
# [4] = target: Neu5Ac(a2-3)Gal(b1-4)GlcNAc(b1-2)Man(a1-3)[GlcNAc(b1-4)][Neu5Ac(a2-3)Gal(b1-4)GlcNAc(b1-2)Man(a1-6)]Man(b1-4)GlcNAc(b1-4)GlcNAc
# Outline: as §1
# [5] = target: Neu5Ac(a2-3)Gal(b1-4)GlcNAc(b1-2)Man(a1-3)[Neu5Ac(a2-3)Gal(b1-4)GlcNAc(b1-2)Man(a1-6)]Man(b1-4)GlcNAc(b1-4)GlcNAc
# Outline: as §1
# [6] = target: Neu5Ac(a2-3)Gal(b1-4)GlcNAc(b1-2)Man(a1-3)[Neu5Ac(a2-3)Gal(b1-4)GlcNAc(b1-2)Man(a1-6)]Man(b1-4)GlcNAc(b1-4)[Fuc(a1-6)]GlcNAc
# Outline: as §1
# [7] = target: Neu5Ac(a2-3)Gal(b1-4)GlcNAc(b1-2)Man(a1-3)[Neu5Ac(a2-6)Gal(b1-4)GlcNAc(b1-2)Man(a1-6)]Man(b1-4)GlcNAc(b1-4)GlcNAc
# Outline: as §1
# [8] = target: Neu5Ac(a2-3)Gal(b1-4)GlcNAc(b1-2)[Neu5Ac(a2-3)Gal(b1-4)GlcNAc(b1-4)]Man(a1-3)[GlcNAc(b1-4)][Neu5Ac(a2-3)Gal(b1-4)GlcNAc(b1-2)[Neu5Ac(a2-3)Gal(b1-4)GlcNAc(b1-6)]Man(a1-6)]Man(b1-4)GlcNAc(b1-4)GlcNAc
# Outline: as §1
# [9] = target: Neu5Ac(a2-3)Gal(b1-4)GlcNAc(b1-2)[Neu5Ac(a2-3)Gal(b1-4)GlcNAc(b1-4)]Man(a1-3)[GlcNAc(b1-4)][Neu5Ac(a2-3)Gal(b1-4)GlcNAc(b1-4)Man(a1-6)]Man(b1-4)GlcNAc(b1-4)GlcNAc
# Outline: as §1
# [10] = target: Neu5Ac(a2-3)Gal(b1-4)GlcNAc(b1-2)[Neu5Ac(a2-3)Gal(b1-4)GlcNAc(b1-6)]Man(a1-6)[Neu5Ac(a2-3)Gal(b1-4)GlcNAc(b1-2)Man(a1-3)][GlcNAc(b1-4)]Man(b1-4)GlcNAc(b1-4)GlcNAc
# Outline: as §1
# [11] = target: Neu5Ac(a2-3)Gal(b1-4)GlcNAc(b1-3)Gal
# Outline: as §1
# [12] = target: Neu5Ac(a2-3)Gal(b1-4)GlcNAc(b1-3)Gal(b1-3)GlcNAc
# Outline: as §1
# [13] = target: Neu5Ac(a2-3)Gal(b1-4)GlcNAc(b1-3)Gal(b1-4)GlcNAc
# Outline: as §1
# [14] = target: Neu5Ac(a2-3)Gal(b1-4)GlcNAc(b1-3)Gal(b1-4)GlcNAc(b1-2)Man(a1-3)[Neu5Ac(a2-3)Gal(b1-4)GlcNAc(b1-3)Gal(b1-4)GlcNAc(b1-2)Man(a1-6)]Man(b1-4)GlcNAc(b1-4)GlcNAc
# Outline: as §1
# [15] = target: Neu5Ac(a2-3)Gal(b1-4)GlcNAc(b1-3)Gal(b1-4)GlcNAc(b1-3)Gal(b1-4)GlcNAc
# Outline: as §1
# [16] = target: Neu5Ac(a2-3)Gal(b1-4)GlcNAc(b1-3)Gal(b1-4)GlcNAc(b1-3)Gal(b1-4)GlcNAc(b1-2)Man(a1-3)[Neu5Ac(a2-3)Gal(b1-4)GlcNAc(b1-3)Gal(b1-4)GlcNAc(b1-3)Gal(b1-4)GlcNAc(b1-2)Man(a1-6)]GalNAc
# Outline: as §1
# [17] = target: Neu5Ac(a2-3)Gal(b1-4)GlcNAc(b1-3)Gal(b1-4)GlcNAc(b1-3)GalNAc
# Outline: as §1
# [18] = target: Neu5Ac(a2-3)Gal(b1-4)GlcNAc(b1-3)Gal(b1-4)GlcNAc(b1-3)[Neu5Ac(a2-3)Gal(b1-4)GlcNAc(b1-3)Gal(b1-4)GlcNAc(b1-6)]GalNAc
# Outline: as §1
# [19] = target: Neu5Ac(a2-3)Gal(b1-4)GlcNAc(b1-3)Gal(b1-4)GlcNAc(b1-6)[Gal(b1-3)]GalNAc
# Outline: as §1
# [20] = target: Neu5Ac(a2-3)Gal(b1-4)GlcNAc(b1-3)Gal(b1-4)[Fuc(a1-3)]GlcNAc
# Outline: as §1
# [21] = target: Neu5Ac(a2-3)Gal(b1-4)GlcNAc(b1-3)GalNAc
# Outline: as §1
# [22] = target: Neu5Ac(a2-3)Gal(b1-4)GlcNAc(b1-3)[Neu5Ac(a2-3)Gal(b1-4)GlcNAc(b1-6)]GalNAc
# Outline: as §1
# [23] = target: Neu5Ac(a2-3)Gal(b1-4)GlcNAc(b1-6)GalNAc
# Outline: as §1
# [24] = target: Neu5Ac(a2-3)Gal(b1-4)GlcNAc(b1-6)[Gal(b1-3)]GalNAc
# Outline: as §1
# [25] = target: Neu5Ac(a2-3)Gal(b1-4)GlcNAc(b1-6)[Neu5Ac(a2-3)Gal(b1-3)]GalNAc
# Outline: as §1
# [26] = target: Neu5Ac(a2-3)Gal(b1-4)GlcNAc6S
# Outline: as §1
# [27] = target: Neu5Ac(a2-3)Gal(b1-4)[Fuc(a1-3)]GlcNAc
# Outline: as §1
# [28] = target: Neu5Ac(a2-3)Gal(b1-4)[Fuc(a1-3)]GlcNAc(b1-2)Man
# Outline: as §1
# [29] = target: Neu5Ac(a2-3)Gal(b1-4)[Fuc(a1-3)]GlcNAc(b1-3)Gal
# Outline: as §1
# [30] = target: Neu5Ac(a2-3)Gal(b1-4)[Fuc(a1-3)]GlcNAc(b1-3)Gal(b1-4)GlcNAc
# Outline: as §1
# [31] = target: Neu5Ac(a2-3)Gal(b1-4)[Fuc(a1-3)]GlcNAc(b1-3)Gal(b1-4)[Fuc(a1-3)]GlcNAc(b1-3)Gal(b1-4)[Fuc(a1-3)]GlcNAc
# Outline: as §1
# [32] = target: Neu5Ac(a2-3)Gal(b1-4)[Fuc(a1-3)]GlcNAc(b1-3)GalNAc
# Outline: as §1
# [33] = target: Neu5Ac(a2-3)Gal(b1-4)[Fuc(a1-3)]GlcNAc(b1-6)[Gal(b1-3)]GalNAc
# Outline: as §1
# [34] = target: Neu5Ac(a2-3)Gal(b1-4)[Fuc(a1-3)]GlcNAc(b1-6)[Neu5Ac(a2-3)Gal(b1-3)]GalNAc
# Outline: as §1
# [35] = target: Neu5Ac(a2-3)Gal(b1-4)[Fuc(a1-3)]GlcNAc6S
# Outline: as §1
# [36] = target: Neu5Ac(a2-3)Gal6S(b1-4)GlcNAc
# Outline: as §1
# [37] = target: Neu5Ac(a2-3)Gal6S(b1-4)[Fuc(a1-3)]GlcNAc
# Outline: as §1
binder,measurement,setting,value
B1,glycan array binding signal (z-score),[1],1.62
same,glycan array binding signal (z-score),Neu5Ac(a2-3)Gal(b1-4)Glc,0.604
same,glycan array binding signal (z-score),[2],0.265
same,glycan array binding signal (z-score),[3],1.85
same,glycan array binding signal (z-score),[4],1.41
same,glycan array binding signal (z-score),[5],-0.831
same,glycan array binding signal (z-score),[6],-0.101
same,glycan array binding signal (z-score),[7],-1.42
same,glycan array binding signal (z-score),[8],-0.621
same,glycan array binding signal (z-score),[9],-1.03
same,glycan array binding signal (z-score),[10],0.925
same,glycan array binding signal (z-score),[11],-1.61
same,glycan array binding signal (z-score),[12],0.188
same,glycan array binding signal (z-score),[13],-0.371
same,glycan array binding signal (z-score),[14],-0.134
same,glycan array binding signal (z-score),[15],-1.13
same,glycan array binding signal (z-score),[16],1.19
same,glycan array binding signal (z-score),[17],-0.228
same,glycan array binding signal (z-score),[18],0.565
same,glycan array binding signal (z-score),[19],-0.843
same,glycan array binding signal (z-score),[20],-0.333
same,glycan array binding signal (z-score),[21],-0.57
same,glycan array binding signal (z-score),[22],0.328
same,glycan array binding signal (z-score),[23],-2.21
same,glycan array binding signal (z-score),[24],-0.96
same,glycan array binding signal (z-score),[25],-0.233
same,glycan array binding signal (z-score),[26],0.481
same,glycan array binding signal (z-score),[27],0.007
same,glycan array binding signal (z-score),[28],0.096
same,glycan array binding signal (z-score),[29],0.757
same,glycan array binding signal (z-score),[30],1.14
same,glycan array binding signal (z-score),[31],-1.32
same,glycan array binding signal (z-score),[32],-0.869
same,glycan array binding signal (z-score),[33],-0.839
same,glycan array binding signal (z-score),[34],-1.23
same,glycan array binding signal (z-score),[35],-1.72
same,glycan array binding signal (z-score),[36],-0.68
same,glycan array binding signal (z-score),[37],-2.01

# Three successive entries already listed:
binder,measurement,setting,value
B1,glycan array binding signal (z-score),[34],-1.23
same,glycan array binding signal (z-score),[35],-1.72
same,glycan array binding signal (z-score),[36],-0.68
